From patent publication US20250082754A1 (NANJING LEGEND BIOTECH, published 2025)

Target: Cyno CD33 (Macaca fascicularis)
Assay: +/- column 'Cyno CD33' of the drawn table; legend: cell binding properties; assay not named on the sheet

| binding | Binder |
| --- | --- |
| binds | AS142077 (scFv, Format as for f1; also called anti-CD33 IgG1 AS142077; AS142077 scFv) scFv (VL-linker-VH): SYELTQPSAMSVSLGETTRITCQGGNIESSYASWYQQKPGQAPALVIYEDSERPSRIPERFSGSSSGGTATLTISGAQAEDEADYYCQSADSSGYNPVFGGGTHLTVLGGGGSGGGGSGGGGSQVQLVESGGGLVQPGGSLRLSCAASGFTFSSYAMSWVRQAPGKGLEWVSGINSGGGSTYYADSVKGRFTISRDNAKNTLYLQLNSLKTEDTAMYYCAKHLLIIYSDYDVRGSEALDAWGQGTLVTVSS |
| binds | AS188893 (scFv, Format as for f1; also called anti-CD33 IgG1 AS188893; AS188893 scFv) scFv (VL-linker-VH): SYELTQPSAVSVSLGQTARITCQGGNLGTSYVHWYQQKPGQAPVLVIYGDDSRPSGIPERFSGSSSGGTATLTISGAQAEDEADYYCQSYDSSSSVFGGGTHLTVLGGGGSGGGGSGGGGSQVQLQESGGGLVQPGGSLRLSCAASGFTFSNNWMYWVRQAPGKGLEWVSSIATGDGSTNSADSVKGRFTISRDNTKNMLYLQMNSLKSEDTALYYCAKGVNIDHDVGAGDYWGQGTQVTVSS |

These are yes or no findings as the source states them, for the method shown. A result given as binding can be weak or reduced; the word gives no strength.
